This is one part of the list.
What was measured:
Assay in all cases: log2 fold change, soluble protein after heating vs DMSO (PISA); higher = thermal stabilisation; K562 lysate, 10 uM; active = over 0.2 and 3.5 SD of the protein, either way, in both replicates (recomputed)
lapatinib = compound: CS(=O)(=O)CCNCc1ccc(-c2ccc3ncnc(Nc4ccc(OCc5cccc(F)c5)c(Cl)c4)c3c2)o1 [lapatinib]
In short: (§1)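 Log-two fold change in thermal stability relative to solvent controls is reported from duplicates. For each sample, crude K562 extract from dounce-homogenised pellets in PBS pH 7.4 with 1 mM MgCl2, at 1 mg/mL protein, was treated with 10 μM compound for 30 min. Aliquots heated for 3 min across 48°C-58°C were pooled, brought to 0.5% NP-40 at 4°C and cleared at 21,000xg for 90 min. The supernatant was quantified by TMTpro 16plex LC-MS/MS with channel sums equalised.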

The chains behind the UniProt entries cited, without tags or fusion partners. Where a name states a change or a piece, a line headed by the entry shows the natural chain unless it says otherwise.
UniProt Q8N196: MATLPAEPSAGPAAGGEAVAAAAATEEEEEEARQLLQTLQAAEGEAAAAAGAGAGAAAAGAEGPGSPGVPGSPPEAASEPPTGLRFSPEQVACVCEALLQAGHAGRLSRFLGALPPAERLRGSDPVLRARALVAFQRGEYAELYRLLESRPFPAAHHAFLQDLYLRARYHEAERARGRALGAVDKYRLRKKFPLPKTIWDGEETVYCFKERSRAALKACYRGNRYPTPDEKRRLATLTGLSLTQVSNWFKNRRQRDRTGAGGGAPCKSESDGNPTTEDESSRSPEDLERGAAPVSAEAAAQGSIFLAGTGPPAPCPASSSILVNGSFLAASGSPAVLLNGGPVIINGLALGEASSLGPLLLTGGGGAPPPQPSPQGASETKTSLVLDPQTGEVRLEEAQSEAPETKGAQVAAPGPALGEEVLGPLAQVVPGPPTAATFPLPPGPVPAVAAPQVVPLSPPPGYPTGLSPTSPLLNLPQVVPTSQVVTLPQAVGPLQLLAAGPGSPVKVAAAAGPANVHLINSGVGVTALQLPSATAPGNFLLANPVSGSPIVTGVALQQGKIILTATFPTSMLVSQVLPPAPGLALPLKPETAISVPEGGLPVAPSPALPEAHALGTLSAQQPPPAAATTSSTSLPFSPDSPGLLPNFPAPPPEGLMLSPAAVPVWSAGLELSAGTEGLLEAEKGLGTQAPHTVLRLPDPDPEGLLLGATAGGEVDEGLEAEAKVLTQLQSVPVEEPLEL
UniProt Q9Y666: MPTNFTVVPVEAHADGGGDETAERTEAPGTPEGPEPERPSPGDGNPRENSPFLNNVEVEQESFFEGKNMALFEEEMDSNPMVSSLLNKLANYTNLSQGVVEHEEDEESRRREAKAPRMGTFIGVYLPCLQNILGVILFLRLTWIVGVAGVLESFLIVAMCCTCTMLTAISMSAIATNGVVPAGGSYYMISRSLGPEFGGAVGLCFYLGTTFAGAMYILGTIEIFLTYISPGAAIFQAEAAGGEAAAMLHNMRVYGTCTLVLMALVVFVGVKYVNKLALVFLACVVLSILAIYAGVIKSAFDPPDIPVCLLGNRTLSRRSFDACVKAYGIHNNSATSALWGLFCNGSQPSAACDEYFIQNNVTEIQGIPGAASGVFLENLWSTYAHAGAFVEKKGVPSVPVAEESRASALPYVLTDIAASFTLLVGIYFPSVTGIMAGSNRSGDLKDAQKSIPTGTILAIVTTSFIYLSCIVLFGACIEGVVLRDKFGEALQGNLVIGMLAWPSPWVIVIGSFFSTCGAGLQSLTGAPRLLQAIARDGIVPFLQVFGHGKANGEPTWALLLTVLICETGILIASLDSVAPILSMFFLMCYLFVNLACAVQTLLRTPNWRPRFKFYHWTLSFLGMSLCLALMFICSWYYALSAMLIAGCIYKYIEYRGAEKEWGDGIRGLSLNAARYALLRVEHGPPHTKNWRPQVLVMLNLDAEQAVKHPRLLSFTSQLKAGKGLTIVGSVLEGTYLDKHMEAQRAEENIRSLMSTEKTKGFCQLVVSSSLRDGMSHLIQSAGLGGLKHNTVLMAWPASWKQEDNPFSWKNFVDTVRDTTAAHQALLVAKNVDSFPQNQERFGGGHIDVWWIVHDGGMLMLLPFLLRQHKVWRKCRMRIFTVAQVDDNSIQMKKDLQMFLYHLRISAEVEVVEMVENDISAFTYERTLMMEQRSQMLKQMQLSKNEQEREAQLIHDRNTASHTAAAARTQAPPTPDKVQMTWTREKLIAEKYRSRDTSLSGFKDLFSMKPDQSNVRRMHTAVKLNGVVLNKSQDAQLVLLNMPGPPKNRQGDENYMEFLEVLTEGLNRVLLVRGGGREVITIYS
UniProt Q9NTG7: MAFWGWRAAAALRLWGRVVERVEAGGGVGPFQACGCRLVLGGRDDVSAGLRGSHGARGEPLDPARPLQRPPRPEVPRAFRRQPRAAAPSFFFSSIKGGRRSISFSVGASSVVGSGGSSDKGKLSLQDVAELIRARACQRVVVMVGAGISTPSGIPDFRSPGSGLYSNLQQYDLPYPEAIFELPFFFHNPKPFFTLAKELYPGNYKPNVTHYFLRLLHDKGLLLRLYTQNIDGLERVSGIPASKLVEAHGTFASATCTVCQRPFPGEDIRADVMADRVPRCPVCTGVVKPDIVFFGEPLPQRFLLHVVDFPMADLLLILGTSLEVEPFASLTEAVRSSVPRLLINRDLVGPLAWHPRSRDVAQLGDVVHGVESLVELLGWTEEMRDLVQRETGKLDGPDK
UniProt Q8IUQ4: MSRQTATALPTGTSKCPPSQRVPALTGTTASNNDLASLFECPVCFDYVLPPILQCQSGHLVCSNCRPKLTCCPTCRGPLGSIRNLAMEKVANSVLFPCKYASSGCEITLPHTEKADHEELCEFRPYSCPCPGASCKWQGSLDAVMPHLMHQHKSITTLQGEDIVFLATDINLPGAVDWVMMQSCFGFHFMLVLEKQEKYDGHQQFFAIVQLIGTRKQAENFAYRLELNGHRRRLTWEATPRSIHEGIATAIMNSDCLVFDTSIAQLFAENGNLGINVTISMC
UniProt Q86VZ5: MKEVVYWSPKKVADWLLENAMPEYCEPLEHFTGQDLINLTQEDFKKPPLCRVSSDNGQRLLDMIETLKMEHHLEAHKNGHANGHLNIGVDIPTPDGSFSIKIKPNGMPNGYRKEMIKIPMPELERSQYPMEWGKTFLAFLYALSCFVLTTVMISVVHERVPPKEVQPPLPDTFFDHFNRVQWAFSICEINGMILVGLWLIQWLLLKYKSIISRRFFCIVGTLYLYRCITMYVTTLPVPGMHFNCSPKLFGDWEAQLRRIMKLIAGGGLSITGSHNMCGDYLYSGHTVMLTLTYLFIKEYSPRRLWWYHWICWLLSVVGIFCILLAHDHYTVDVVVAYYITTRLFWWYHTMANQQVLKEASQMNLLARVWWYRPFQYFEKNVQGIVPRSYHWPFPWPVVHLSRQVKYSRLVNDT
UniProt P12755: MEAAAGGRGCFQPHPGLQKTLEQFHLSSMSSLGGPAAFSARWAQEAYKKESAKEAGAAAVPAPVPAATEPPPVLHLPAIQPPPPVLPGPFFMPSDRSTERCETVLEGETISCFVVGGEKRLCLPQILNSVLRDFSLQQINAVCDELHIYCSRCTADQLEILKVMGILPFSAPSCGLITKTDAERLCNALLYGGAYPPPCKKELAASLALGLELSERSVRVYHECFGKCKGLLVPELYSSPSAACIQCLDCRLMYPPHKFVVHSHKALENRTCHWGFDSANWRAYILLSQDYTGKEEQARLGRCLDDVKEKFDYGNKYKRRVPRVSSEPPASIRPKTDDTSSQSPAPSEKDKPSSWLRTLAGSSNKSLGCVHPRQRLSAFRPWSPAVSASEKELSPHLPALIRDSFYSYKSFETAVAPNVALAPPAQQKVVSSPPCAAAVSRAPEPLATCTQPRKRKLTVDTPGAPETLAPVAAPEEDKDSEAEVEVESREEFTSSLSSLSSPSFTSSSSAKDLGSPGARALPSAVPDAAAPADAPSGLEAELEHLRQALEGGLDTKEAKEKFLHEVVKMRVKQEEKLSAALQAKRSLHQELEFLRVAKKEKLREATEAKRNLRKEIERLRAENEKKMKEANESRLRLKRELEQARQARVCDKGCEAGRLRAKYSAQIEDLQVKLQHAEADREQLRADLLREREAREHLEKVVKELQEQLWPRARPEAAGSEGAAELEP
UniProt P01009, whole entry, looked up: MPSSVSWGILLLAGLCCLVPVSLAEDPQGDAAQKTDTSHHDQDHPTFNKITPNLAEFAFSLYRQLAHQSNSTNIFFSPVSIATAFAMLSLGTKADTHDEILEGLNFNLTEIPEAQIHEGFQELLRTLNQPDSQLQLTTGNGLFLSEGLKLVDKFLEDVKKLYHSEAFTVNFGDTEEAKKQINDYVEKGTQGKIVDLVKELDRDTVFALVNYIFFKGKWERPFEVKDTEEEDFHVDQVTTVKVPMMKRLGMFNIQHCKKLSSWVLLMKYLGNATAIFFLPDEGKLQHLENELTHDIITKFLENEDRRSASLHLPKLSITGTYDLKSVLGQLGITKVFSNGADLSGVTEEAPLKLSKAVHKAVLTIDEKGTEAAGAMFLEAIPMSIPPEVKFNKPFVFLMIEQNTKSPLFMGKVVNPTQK
UniProt P05543: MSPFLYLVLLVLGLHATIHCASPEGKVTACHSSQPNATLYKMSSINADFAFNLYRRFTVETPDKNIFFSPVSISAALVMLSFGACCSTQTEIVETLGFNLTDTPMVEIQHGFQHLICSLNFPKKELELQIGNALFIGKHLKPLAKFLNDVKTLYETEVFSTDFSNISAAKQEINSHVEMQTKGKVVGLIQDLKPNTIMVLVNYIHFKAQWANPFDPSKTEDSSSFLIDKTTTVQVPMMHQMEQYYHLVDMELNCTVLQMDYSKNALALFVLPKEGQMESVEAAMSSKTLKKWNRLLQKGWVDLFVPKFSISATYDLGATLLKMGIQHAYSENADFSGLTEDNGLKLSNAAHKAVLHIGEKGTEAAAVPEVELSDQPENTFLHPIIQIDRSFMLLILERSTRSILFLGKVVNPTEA
UniProt P29353: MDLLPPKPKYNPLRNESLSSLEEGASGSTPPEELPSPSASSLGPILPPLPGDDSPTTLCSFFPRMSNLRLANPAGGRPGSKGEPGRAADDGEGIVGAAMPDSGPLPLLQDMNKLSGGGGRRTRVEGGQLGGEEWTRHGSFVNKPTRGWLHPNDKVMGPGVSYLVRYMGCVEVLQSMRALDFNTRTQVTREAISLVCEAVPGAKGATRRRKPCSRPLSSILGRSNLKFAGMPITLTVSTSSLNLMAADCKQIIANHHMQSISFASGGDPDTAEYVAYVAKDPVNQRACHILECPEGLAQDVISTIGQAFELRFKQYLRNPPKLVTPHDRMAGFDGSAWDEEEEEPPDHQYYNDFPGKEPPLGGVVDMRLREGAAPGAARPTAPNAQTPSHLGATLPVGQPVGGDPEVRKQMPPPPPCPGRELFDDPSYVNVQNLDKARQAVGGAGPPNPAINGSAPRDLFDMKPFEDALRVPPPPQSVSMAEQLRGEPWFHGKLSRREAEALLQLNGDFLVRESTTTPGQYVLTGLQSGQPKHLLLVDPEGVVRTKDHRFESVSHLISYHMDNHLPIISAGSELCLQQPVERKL
UniProt Q6PI26: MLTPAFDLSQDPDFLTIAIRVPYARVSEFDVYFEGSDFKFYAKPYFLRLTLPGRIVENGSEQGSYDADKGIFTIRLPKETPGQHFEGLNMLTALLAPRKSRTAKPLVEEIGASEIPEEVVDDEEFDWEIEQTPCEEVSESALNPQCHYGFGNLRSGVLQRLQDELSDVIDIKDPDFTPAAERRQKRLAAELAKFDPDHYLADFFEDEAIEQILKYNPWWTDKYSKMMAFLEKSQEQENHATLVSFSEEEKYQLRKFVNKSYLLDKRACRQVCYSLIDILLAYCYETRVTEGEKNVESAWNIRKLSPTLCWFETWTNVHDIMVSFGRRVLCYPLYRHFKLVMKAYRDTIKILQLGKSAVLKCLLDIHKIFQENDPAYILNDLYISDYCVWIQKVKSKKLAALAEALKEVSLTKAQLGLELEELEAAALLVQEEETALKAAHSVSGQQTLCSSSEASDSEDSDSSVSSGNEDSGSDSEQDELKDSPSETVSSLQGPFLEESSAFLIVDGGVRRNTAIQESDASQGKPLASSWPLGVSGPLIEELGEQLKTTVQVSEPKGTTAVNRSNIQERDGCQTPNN
UniProt Q8NDZ2: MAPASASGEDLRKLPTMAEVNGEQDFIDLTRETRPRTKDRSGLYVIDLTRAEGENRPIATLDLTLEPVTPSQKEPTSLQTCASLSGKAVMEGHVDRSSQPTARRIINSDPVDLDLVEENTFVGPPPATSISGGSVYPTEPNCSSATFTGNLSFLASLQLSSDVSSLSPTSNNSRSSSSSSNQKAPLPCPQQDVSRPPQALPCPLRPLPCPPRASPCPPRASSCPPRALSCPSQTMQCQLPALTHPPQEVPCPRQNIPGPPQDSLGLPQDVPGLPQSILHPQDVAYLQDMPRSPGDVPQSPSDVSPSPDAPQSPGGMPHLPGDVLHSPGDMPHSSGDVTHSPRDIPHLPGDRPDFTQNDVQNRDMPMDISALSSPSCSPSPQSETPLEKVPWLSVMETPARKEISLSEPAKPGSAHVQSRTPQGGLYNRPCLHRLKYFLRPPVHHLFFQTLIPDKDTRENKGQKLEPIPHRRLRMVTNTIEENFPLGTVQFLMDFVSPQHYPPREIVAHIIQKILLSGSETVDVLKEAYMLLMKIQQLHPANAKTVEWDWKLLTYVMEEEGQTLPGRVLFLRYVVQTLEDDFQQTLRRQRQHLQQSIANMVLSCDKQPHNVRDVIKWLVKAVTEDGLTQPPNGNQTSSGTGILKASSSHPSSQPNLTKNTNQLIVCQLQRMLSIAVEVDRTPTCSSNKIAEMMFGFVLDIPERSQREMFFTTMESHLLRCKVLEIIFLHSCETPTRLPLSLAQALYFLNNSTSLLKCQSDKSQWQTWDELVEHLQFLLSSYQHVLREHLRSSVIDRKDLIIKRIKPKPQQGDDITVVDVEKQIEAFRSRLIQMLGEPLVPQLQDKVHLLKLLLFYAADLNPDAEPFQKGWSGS

crizotinib = compound: C[C@@H](Oc1cc(-c2cnn(C3CCNCC3)c2)cnc1N)c1c(Cl)ccc(F)c1Cl [crizotinib]
In short: as §1

duvelisib = compound: C[C@H](Nc1ncnc2nc[nH]c12)c1cc2cccc(Cl)c2c(=O)n1-c1ccccc1 [duvelisib]
In short: as §1

tozasertib = compound: Cc1cc(Nc2cc(N3CCN(C)CC3)nc(Sc3ccc(NC(=O)C4CC4)cc3)n2)n[nH]1 [tozasertib]
In short: as §1

doramapimod = compound: Cc1ccc(-n2nc(C(C)(C)C)cc2NC(=O)Nc2ccc(OCCN3CCOCC3)c3ccccc23)cc1 [doramapimod]
In short: as §1

pictilisib = compound: CS(=O)(=O)N1CCN(Cc2cc3nc(-c4cccc5[nH]ncc45)nc(N4CCOCC4)c3s2)CC1 [pictilisib]
In short: as §1

[1] = compound: C[C@H](C1=CC=C(C=C1)C(=O)NC2=C3C=CNC3=NC=C2)N
In short: as §1

gandotinib = compound: Cc1cc(Nc2cc(CN3CCOCC3)c3nc(C)c(Cc4ccc(Cl)cc4F)n3n2)n[nH]1 [gandotinib]
In short: as §1

bafetinib = compound: Cc1ccc(NC(=O)c2ccc(CN3CC[C@H](N(C)C)C3)c(C(F)(F)F)c2)cc1Nc1nccc(-c2cncnc2)n1 [bafetinib]
In short: as §1

[2] = compound: Cc1cccc(CC(=O)N2CCc3c2ccc(-c2cn(C)c4ncnc(N)c24)c3F)n1
In short: as §1

Row | Target | log2 fold change (lapatinib) | log2 fold change (crizotinib) | log2 fold change (duvelisib) | log2 fold change (tozasertib) | log2 fold change (doramapimod) | log2 fold change (pictilisib) | log2 fold change [1] | log2 fold change (gandotinib) | log2 fold change (bafetinib) | log2 fold change [2]
1 | SLC12A6 isoform 2 (UniProt Q9UHW9) | inactive: -0.019 | inactive: -0.051 | inactive: -0.023 | inactive: 0.068 | inactive: 0.054 |  |  |  |  | 
2 | SIX5 (UniProt Q8N196) | inactive: -0.105 | inactive: -0.075 | inactive: 0.039 |  | inactive: 0.143 | inactive: 0.015 | inactive: 0.22 | active: -0.48 | inactive: -0.009 | inactive: -0.306
3 | SLC12A7 (UniProt Q9Y666) | inactive: -0.055 |  |  |  |  |  | inactive: -0.227 | inactive: 0.116 |  | inactive: 0.123
4 | SIRT3 (UniProt Q9NTG7) | inactive: 0.04 | inactive: -0.015 | inactive: 0.029 |  | inactive: 0.023 |  |  |  |  | 
5 | SETX isoform 4 (UniProt Q7Z333) | inactive: -0.135 | inactive: -0.088 | inactive: 0.083 | inactive: -0.077 | inactive: -0.009 |  | inactive: 0.074 | inactive: -0.213 |  | inactive: 0.069
6 | SIAH1 isoform 2 (UniProt Q8IUQ4) | inactive: -0.016 | inactive: 0.062 |  |  | inactive: 0.011 |  |  |  |  | 
7 | SGMS1 (UniProt Q86VZ5) | inactive: -0.097 | inactive: 0.067 | inactive: 0.003 | inactive: 0.122 | inactive: 0.069 |  | inactive: -0.065 | inactive: 0.037 |  | inactive: 0.055
8 | SIPA1L1 (UniProt O43166) | inactive: 0.008 | inactive: -0.039 |  | inactive: -0.011 | inactive: -0.363 | inactive: -0.021 | inactive: -0.097 | inactive: 0.095 | inactive: -0.014 | inactive: 0.042
9 | SKI (UniProt P12755) |  |  |  |  |  |  | inactive: 0.134 | inactive: 0.431 |  | inactive: -0.162
10 | SERPINA1 (UniProt P01009) |  |  | inactive: 0.044 |  |  |  | inactive: 0.152 | inactive: -0.255 |  | inactive: 0.203
11 | SGO2 (UniProt Q562F6) |  | inactive: -0.029 |  | inactive: -0.107 | inactive: 0.043 | inactive: 0.001 |  |  | inactive: -0.081 | 
12 | SERPINA7 (UniProt P05543) |  |  |  | inactive: -0.071 |  | inactive: 0.005 | inactive: -0.058 | inactive: 0.019 | inactive: 0.089 | inactive: 0.064
13 | SHC1 (UniProt P29353) |  |  |  |  |  |  | inactive: 0.029 | inactive: -0.033 |  | inactive: 0.009
14 | SHQ1 (UniProt Q6PI26) |  | inactive: 0.012 | inactive: -0.271 |  | inactive: 0.038 | inactive: -0.013 | inactive: 0.038 | inactive: -0.313 | inactive: -0.087 | inactive: -0.073
15 | SIMC1 (UniProt Q8NDZ2) |  | inactive: -0.014 |  | inactive: 0.261 | inactive: 0.171 | inactive: -0.25 | inactive: -0.134 | inactive: 0.055 | inactive: -0.035 | inactive: 0.123
16 | SINHCAF (UniProt Q9NP50) |  | inactive: 0 | inactive: -0.028 |  | inactive: 0.032 |  | inactive: -0.05 | inactive: -0.155 |  | inactive: 0.032
17 | SERAC1 (UniProt Q96JX3) |  |  | inactive: 0.145 | inactive: -0.089 |  | inactive: -0.018 | inactive: -0.074 | inactive: 0.052 | inactive: -0.276 | inactive: 0.127

Reprinted: entries 5 to 6
Row | Target | log2 fold change (lapatinib) | log2 fold change (crizotinib) | log2 fold change (duvelisib) | log2 fold change (tozasertib) | log2 fold change (doramapimod) | log2 fold change (pictilisib) | log2 fold change [1] | log2 fold change (gandotinib) | log2 fold change (bafetinib) | log2 fold change [2]
5 | SETX isoform 4 (UniProt Q7Z333) | inactive: -0.135 | inactive: -0.088 | inactive: 0.083 | inactive: -0.077 | inactive: -0.009 |  | inactive: 0.074 | inactive: -0.213 |  | inactive: 0.069
6 | SIAH1 isoform 2 (UniProt Q8IUQ4) | inactive: -0.016 | inactive: 0.062 |  |  | inactive: 0.011 |  |  |  |  | 
